PubChem BioAssay AID686943 | Drosophila RNAi Screening Center – 2013
Purpose: 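Search across the genome for regulators of signalling from receptor tyrosine kinase to ERK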 (primary screen). Cells: Drosophila S2R+ haemocyte-like cells expressing YFP-tagged ERK (Rolled). Reagents: long dsRNA against Drosophila genes. Challenge: insulin stimulation versus unstimulated cells; dose and duration not given. Read-out: 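Antibody staining for doubly phosphorylated ERK divided by ERK-YFP signal, as plate z-scores, in insulin-treated and untreated cells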. Direction: replicate 1, z-score of dpERK with insulin: higher = more active ERK per ERK-YFP after insulin.
In all, the deposit lists about 23,000 reagents; this is a random part of those with a known target gene and a result. 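Extra replicates exist only for a retested subset of genes; insulin dose and duration not given; both raised and lowered dpERK matter.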 The numbers tell different reagents against one gene apart. Not all columns of the deposit are shown. Not given: the amount of reagent, the time to read-out.

With Sam-S (GeneID 48552), what was measured?
replicate 1, z-score of dpERK with insulin: 2.38

How did the screen score SCCRO4 (GeneID 40231)?
replicate 1, z-score of dpERK with insulin: 0.95

What did the screen give for Cpsf100 (GeneID 43426)?
replicate 1, z-score of dpERK with insulin: 2.64

For Stam (GeneID 34505), what does the deposit list?
replicate 1, z-score of dpERK with insulin: 1.14

With CG8568 (GeneID 32728), what does the deposit list?
replicate 1, z-score of dpERK with insulin: -0.18

With TwdlG (GeneID 40535), how do the results read?
replicate 1, z-score of dpERK with insulin: 0.28

What is on record for spag (GeneID 43958)?
replicate 1, z-score of dpERK with insulin: -0.27

For CG5885 (GeneID 34314), what does the deposit list?
replicate 1, z-score of dpERK with insulin: 0.27

With CG7402 (GeneID 39994), what does the deposit list?
replicate 1, z-score of dpERK with insulin: 0.4

With CG43116 (GeneID 12798270), how do the results read?
replicate 1, z-score of dpERK with insulin: -4.4

With Wnt2 (GeneID 35975) #1, what was measured?
replicate 1, z-score of dpERK with insulin: -0.33

For Wnt2 (GeneID 35975) #2, what was measured?
replicate 1, z-score of dpERK with insulin: -0.21

What is on record for Rab26 (GeneID 40359) #1?
replicate 1, z-score of dpERK with insulin: -0.44

For Rab26 (GeneID 40359) #2, how do the results read?
replicate 1, z-score of dpERK with insulin: 0.48

For Rab26 (GeneID 40359) #3, how do the results read?
replicate 1, z-score of dpERK with insulin: 0.76

For scb (GeneID 36692) #1, what was measured?
replicate 1, z-score of dpERK with insulin: -0.58

What did the screen give for scb (GeneID 36692) #2?
replicate 1, z-score of dpERK with insulin: 1.32

With CG15387 (GeneID 33403), what was measured?
replicate 1, z-score of dpERK with insulin: 0.15

With Upf1 (GeneID 32153), what does the deposit list?
replicate 1, z-score of dpERK with insulin: -2.27

For Ddr (GeneID 3346209) #1, what does the deposit list?
replicate 1, z-score of dpERK with insulin: 0.38

What is on record for Ddr (GeneID 3346209) #2?
replicate 1, z-score of dpERK with insulin: -0.28

With Ddr (GeneID 3346209) #3, what was measured?
replicate 1, z-score of dpERK with insulin: -1.38

For Ddr (GeneID 3346209) #4, what does the deposit list?
replicate 1, z-score of dpERK with insulin: -0.25

What is on record for Ddr (GeneID 3346209) #5?
replicate 1, z-score of dpERK with insulin: 0.04

For Ddr (GeneID 3346209) #6, what was measured?
replicate 1, z-score of dpERK with insulin: 0.69

For ADD1 (GeneID 36278), what does the deposit list?
replicate 1, z-score of dpERK with insulin: 1.25

For AANATL3 (GeneID 35285), how do the results read?
replicate 1, z-score of dpERK with insulin: -0.43

What did the screen give for sns (GeneID 44097) #1?
replicate 1, z-score of dpERK with insulin: -5.19

Which result is listed for sns (GeneID 44097) #2?
replicate 1, z-score of dpERK with insulin: 1.74

Which result is listed for sns (GeneID 44097) #3?
replicate 1, z-score of dpERK with insulin: -0.11

For sns (GeneID 44097) #4, what was measured?
replicate 1, z-score of dpERK with insulin: 1.24

For sns (GeneID 44097) #5, how do the results read?
replicate 1, z-score of dpERK with insulin: -0.45

What did the screen give for sns (GeneID 44097) #6?
replicate 1, z-score of dpERK with insulin: -0.88

Ordered by “replicate 1, z-score of dpERK with insulin” (ascending): 4 of the entries above
scb (GeneID 36692) #1: replicate 1, z-score of dpERK with insulin = -0.58
Rab26 (GeneID 40359) #2: replicate 1, z-score of dpERK with insulin = 0.48
Rab26 (GeneID 40359) #3: replicate 1, z-score of dpERK with insulin = 0.76
scb (GeneID 36692) #2: replicate 1, z-score of dpERK with insulin = 1.32
